Several values for one entry are separate records, joined by “and”; a condition that tells them apart may be missing. Equal values may be shown once. Hit rate of the full screen: of about 400,000 compounds, about 13,000 (3.2%) were called active. Inconclusive means that the source gave no clear call. Such entries were picked first, then a sample of the others. The call rests on the fitted dose curve; in most records, active means well fitted cell-killing curve with a large enough effect; inconclusive means small, poorly fitted or top-dose-only effect, or effect the other way; inactive means flat fitted curve, though single readings scatter. Where the call is inconclusive, the potency comes from a doubtful curve fit.
Assay: qHTS assay for MDR1-selective chemotherapeutics: Primary screen using the drug-selected MDR subline cells KB-V1; further: nearly all actives have a fitted effect of over 60% in size
Settings: KB-V1 MDR cells viability, CellTiter-Glo, 72 h; activity change, negative = cytotoxicity: at 46.1 µM (top of the series)
Outline: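 Compound-treated KB-V1 multidrug-resistant cells, 72 h, 37 degrees C; viability by CellTiter-Glo. Fitted qHTS curves give the values.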
On the % scale 0 is the no-effect control and ±100 the full control effect; potency means the concentration at half of the fitted maximal effect.

| Compound | Potency | activity change, negative = cytotoxicity |
| --- | --- | --- |
| CC1(C)COC2(OC1)C(=O)N(CN1CCOCC1)c1ccccc12 | inconclusive: 29.1 µM [rising, single point] |  |
| O=C(Nc1cccnc1)c1cccnc1Cl | inconclusive: 29.1 µM [rising, single point] |  |
| CN(CCO)S(=O)(=O)c1ccc2c(c1)C(=NN)c1cc(S(=O)(=O)N(C)CCO)ccc1-2 | inconclusive: 20.6 µM [rising, single point] |  |
| Cc1cc(-c2ccc(C)c(S(=O)(=O)NCc3cccs3)c2)on1 | inconclusive: 29.1 µM [cytotoxic, single point] |  |
| COc1ccc(Cn2c(SCc3ccc(C)cc3)nc3cc(OC)c(OC)cc3c2=N)cc1Cl | inconclusive: 25.9 µM [cytotoxic, partial curve, poor fit] |  |
| N/N=c1\sc2ccccc2n1-c1ccccc1 | inconclusive: 18.4 µM [rising, partial curve, poor fit] |  |
| CC(C)CCSc1nc(N)c(C#N)cc1C#N | active: 20.6 µM |  |
| CSc1ccc(/C=N/NC(=O)c2ccc(C)c(C)c2)cc1 | inconclusive: 29.1 µM [cytotoxic, single point] |  |
| O=S(=O)(c1cnc(Cl)c(Cl)c1)N1CCc2ccccc21 |  | inactive: 0.495% |
| Cn1cc(C(=O)NCCc2ccccc2)c(=O)c2cc(S(=O)(=O)N3CCCCC3)ccc21 |  | inactive: 19.3% |
| CCn1cc(C(=O)OCC(=O)c2cc(C)n(-c3ccc(OC(F)F)cc3)c2C)c(=O)c2ccc(C)nc21 | active: 23.1 µM |  |
| COc1ccc(C(C(=O)NCC2CCCO2)N(C(=O)Cn2nnc3ccccc32)c2ccc(NC(C)=O)cc2)cc1 (stereo not drawn) |  | inconclusive: 41.3% |
| O=C(CSc1nnc(-c2ccc(Cl)cc2Cl)n1C1CCCCC1)N1CCCC1 | inconclusive: 9.2 µM [cytotoxic, partial curve] |  |
| Cc1ccc(C)c(NC(=O)CN(C)C(=O)CN2C(=O)NC3(CCc4ccccc43)C2=O)c1 (stereo not drawn) | inconclusive: 29.1 µM [rising, single point] |  |
| Cc1ccc2oc(-c3cc(NC(=O)c4oc5ccccc5c4C)ccc3Cl)nc2c1 | inconclusive: 11.6 µM [rising, partial curve] |  |
| O=C(Nc1ccc(S(=O)(=O)NCC2CCCO2)cc1)c1ccccc1 (stereo not drawn) | inconclusive: 2.91 µM [cytotoxic, full curve, poor fit] |  |
| Cc1cccc(-n2c(C)cc(/C=C3\NC(=O)NC3=O)c2C)c1 | inconclusive: 29.1 µM [cytotoxic, single point] |  |
| Cc1nn(-c2cc(C)c3ccccc3n2)c2c1CCC2 | inconclusive: 18.4 µM [cytotoxic, single point] |  |
| CSc1ccc(-c2c(C#N)c(N)nc3c2c(C)nn3-c2ccccc2)cc1 | inconclusive: 29.1 µM [cytotoxic, single point] |  |
| COc1ccc(-c2nc(NC(=O)c3n[nH]c(=O)c4ccccc34)sc2C)cc1 | active: 8.2 µM |  |
| Cc1ccc(C(=O)Nc2cccc(C(=O)NC3CCCC3)c2)cc1 | inconclusive: 29.1 µM [cytotoxic, single point] |  |
| COc1ccc(C(C(=O)NCC2CCCO2)N(Cc2ccco2)C(=O)c2snc(C(N)=O)c2N)cc1OC (stereo not drawn) |  | inactive: -11.4% |

Single records (already shown).
`O=S(=O)(c1cnc(Cl)c(Cl)c1)N1CCc2ccccc21` as listed: activity change, negative = cytotoxicity: inactive: 0.495%
`O=C(CSc1nnc(-c2ccc(Cl)cc2Cl)n1C1CCCCC1)N1CCCC1` as listed: Potency: inconclusive: 9.2 µM [cytotoxic, partial curve]

More entries.

| Compound | Potency | activity change, negative = cytotoxicity |
| --- | --- | --- |
| CCc1ccc(OCC(=O)Nc2cc(-c3nc4cc(C)ccc4o3)ccc2C)cc1 | inconclusive: 16.4 µM [cytotoxic, partial curve, poor fit] |  |
| COc1ccc(-c2c(C)nc(N)nc2-c2ccc(OCc3ccc(C)cc3)cc2O)cc1OC | active: 2.31 µM |  |
| O=C(CCl)Nc1cc(S(=O)(=O)N2CCCCCC2)ccc1Cl | active: 11.6 µM |  |
| CC(=O)Nc1ccc(S(=O)(=O)NC2=C(N3CCN(Cc4ccccc4)CC3)C(=O)c3ccccc3C2=O)cc1 | active: 18.4 µM and inconclusive: 29.1 µM [cytotoxic, partial curve, poor fit] |  |
| O=C(O)c1ccc(NS(=O)(=O)c2cc(Cl)ccc2Cl)cc1 | inconclusive: 16.4 µM [rising, partial curve, poor fit] |  |
| CCc1nc2ccc(C(=O)NCc3ccccc3OC)cn2c1N(CC)CCOC | inconclusive: 4.11 µM [cytotoxic, partial curve] |  |
| CCOc1ccc(C(=O)Nc2cc(C)on2)cc1 | inconclusive: 20.6 µM [cytotoxic, single point] |  |
| Cc1c(-c2ccccc2)oc2c(C(=O)N3CCN(c4ccccc4F)CC3)cccc2c1=O | active: 4.61 µM |  |
| COc1ccc(S(=O)(=O)N2CCCC(C(=O)Nc3cccc(C(C)=O)c3)C2)cc1 (stereo not drawn) | inconclusive: 16.4 µM [cytotoxic, single point] |  |
| Cc1ccc(NC2CCCN(C(=O)c3cc(C(C)C)nn3C)C2)cc1C (stereo not drawn) | inconclusive: 23.1 µM [cytotoxic, partial curve, poor fit] |  |
| CC1CCCC(C)N1Cc1cn2ccccc2n1 (stereo not drawn) | inconclusive: 2.91 µM [cytotoxic, full curve, poor fit] |  |
| Cc1ccc(-n2nc(C)c3nc(CCC(=O)Nc4cccc(F)c4)c(=O)n(C)c32)cc1 |  | inactive: 4.72% |
| CCc1nnc(NC(=O)c2cc(-c3ccccn3)nc3ccc(Br)cc23)s1 |  | inactive: -27.2% |
| COc1ccc(CN(C)C(=O)c2cc(S(=O)(=O)N3CCOCC3)ccc2N2CCCC2)cc1 | inconclusive: 20.6 µM [cytotoxic, single point] |  |
| Clc1ccc(-c2noc(-c3cccnc3NCc3ccco3)n2)cc1 |  | inactive: 0% |
| CCc1ccccc1NC1Nc2cc(C)nn2S1 (stereo not drawn) |  | inactive: -29.5% |
| CCOC(=O)c1c(N/N=C/c2cccnc2)n[nH]c1C | active: 5.8 µM |  |
| COc1ccc(N2CCN(Cc3nnc(-c4ccc5c(c4)OCO5)o3)CC2)cc1 | inconclusive: 29.1 µM [rising, single point] |  |
| O=C(CCCC(=O)NC1CCCC1)NC1CCCC1 | inconclusive: 20.6 µM [rising, partial curve, poor fit] |  |
| Cc1ccc(C)c(Cn2c3ccccc3c3cnn(CC(=O)NCCc4ccccc4)c(=O)c32)c1 |  | inactive: 8.85% |
| O=c1c2c(-c3cccs3)csc2ncn1-c1ccc(Br)cc1 | inconclusive: 16.4 µM [cytotoxic, partial curve] |  |

From PubChem BioAssay AID1347076 (National Center for Advancing Translational Sciences (NCATS), 2019)
